No constants are given. Whether binding was seen depends on the method and setting. For some of these results: Binding seen in cells or lysates may run through a third protein. Some binding calls cover weakened binding; strength is not graded here. For some of these results: Where a sequence is shown, tags or fusion partners need not be part of it.
Columns and labels:
[1] = target: T1, CHMP7 (endogenous) (human (endogenous in iPSC derived neurons and postmortem cortex)) (UniProt Q8WUX9); assay: proximity ligation; Duolink PLA on formalin fixed paraffin embedded postmortem human motor and occipital cortex (layer V), control and sALS cases; nuclear PLA spots counted
T1 sequence: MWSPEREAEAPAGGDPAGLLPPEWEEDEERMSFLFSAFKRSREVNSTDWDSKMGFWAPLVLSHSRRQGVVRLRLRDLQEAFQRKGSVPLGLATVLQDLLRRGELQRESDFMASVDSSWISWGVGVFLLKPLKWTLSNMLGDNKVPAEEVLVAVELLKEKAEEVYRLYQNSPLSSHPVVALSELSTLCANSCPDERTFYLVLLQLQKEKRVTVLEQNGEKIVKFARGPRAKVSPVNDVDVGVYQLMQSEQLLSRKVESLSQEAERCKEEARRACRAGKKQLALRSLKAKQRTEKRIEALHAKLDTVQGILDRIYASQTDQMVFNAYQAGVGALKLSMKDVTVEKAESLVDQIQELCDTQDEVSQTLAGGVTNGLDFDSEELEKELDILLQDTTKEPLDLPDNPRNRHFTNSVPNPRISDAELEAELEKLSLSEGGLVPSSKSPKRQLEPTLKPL

Protein sequences, listed by entry. Tags and fused reporters are not part of them.
UniProt Q9UQN3: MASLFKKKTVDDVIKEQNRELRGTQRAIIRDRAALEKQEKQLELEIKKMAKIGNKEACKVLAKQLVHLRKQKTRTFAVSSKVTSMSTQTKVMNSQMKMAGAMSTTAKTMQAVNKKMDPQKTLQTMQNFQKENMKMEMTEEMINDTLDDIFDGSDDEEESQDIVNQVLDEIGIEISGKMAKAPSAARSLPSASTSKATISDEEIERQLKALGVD

[2] = target: T1, CHMP7 (endogenous) (human (endogenous in iPSC derived neurons and postmortem cortex)); assay: proximity ligation; Duolink PLA on fixed, permeabilised control and sALS iPSC derived neurons with primary antibodies against CHMP2B and CHMP7; nuclear PLA spots counted at day 18, 25 and 32 of differentiation
[3] = target: T2, CHMP7 His (UniProt Q8WUX9); assay: pull-down; 2 µg of each recombinant protein (1:1) in 50 µL binding buffer (50 mM Tris pH 7.4, 150 mM NaCl, 2 mM MgCl2, 2 mM CaCl2, 10% glycerol, 0.5% NP-40, 1 mM DTT), 2 h at 4 °C, then magnetic GST or His beads 1 h at 4 °C; bound fraction on SDS-PAGE, SimplyBlue stain; both purified
T2 sequence: T1 sequence

[4] = target: T3, CHMP7 GST (UniProt Q8WUX9); assay: as above
T3 sequence: T1 sequence

CHMP2B (endogenous) (from UniProt Q9UQN3 1-213)
binding [1]: binds | binding [2]: binds

CHMP2B GST (from UniProt Q9UQN3 1-213)
binding [3]: binds

CHMP2B His (from UniProt Q9UQN3 1-213)
binding [4]: binds
